Results from publication PMC9019904, “AD Informer Set: Chemical tools to facilitate Alzheimer's disease drug discovery” (Alzheimer's & Dementia : Translational Research & Clinical …, 2022).

How the values were obtained:
[1] = tested on: HMC3 (human microglia) cell line; experiment: pHrodo-myelin phagocytosis/cell viability high content imaging assay: viability (cell count, nuclear area, nuclear intensity); conditions: HMC3 cells, 10 uM compound, 48 hours treatment
Protocol: (§1) All AD Informer Set compounds were tested in two immortalized microglial cell lines, murine (BV2), and human (HMC3), in a high‐content imaging assay in duplicate by the Chu lab. Experimental details and all data can be found as supporting information files.
(§2) The role of microglia in AD has been well documented and was thus chosen as a cell type in which to profile the AD Informer Set.[43], [44], [45] As an example, neuroinflammation, as detected by the presence of activated complement proteins, interleukins, cytokines, and chemokines in microglia and astrocytes, is increased early in AD and is considered pathogenic due to its chronic nature.[33], [34] Cytotoxic effects can be assessed by considering multiple parameters.
(§3) Microglial viability and phagocytosis studies: The pHrodo-myelin phagocytosis/cell viability assay, modified based on a published method, was run with immortalized BV2 (mouse microglia) and HMC3 (human microglia) cell lines in the Chu lab at IUSM. The 384-well plate high content analysis assay with BV2 and HMC3 microglial cell lines is used to quantify both phagocytosis and cell viability simultaneously. High content imaging is performed with the ArrayScan automatic imaging system and imaging analysis done with the software on the system. After allowing cells to adhere overnight, they are treated with compounds for total 48 hours including final 20 hours seeded with pHrodo-myelin (labeled phagocytosis ligand, purified […]
(§4) (approximately 22 hours after pHrodo-myelin addition). Three measurements are extracted from the assay: 1) phagocytosis signal by mean total phagocytosis spot intensity per cell, 2) total cell counts per well as the main measurement of cell viability, and 3) mean average nuclear intensity per cell as profiling of cell health since apoptotic cells showing nuclear intensity increase (early apoptosis) and decrease (later apoptosis), respectively. These measurements allow for evaluation of compound-induced phagocytosis (1) and cytotoxicity (2 and 3). Assays were carried out at a single concentration (10 μM). Idelalisib (10 μM) and cytochalasin-D (4 μM) were used as positive controls in the assay. All data, which was an average of 2 data points, was normalized to untreated wells and reported as % control, which is included in the Supporting Information both as a raw data file and summarized in the compound/gene-annotation file.

[2] = tested on: BV2 (mouse microglia) cell line; experiment: as above; conditions: BV2 cells, 10 uM compound, 48 hours treatment
Protocol: as §1, §2, §3, §4

O=C(NC12C[C@H]3C[C@@H](C1)C[C@@H](C2)C3)N[C@H]1CC[C@H](Oc2ccc(C(=O)O)cc2)CC1 [UNC10303108A]
1. Cell count (% control) [1]: 146.0 % control | 2. Nuclear Area (% Control) [1]: 101.3 % Control | 3. Nuclear DNA Intensity (% control) [1]: 97.2 % control | 1. Cell count (% control) [2]: 108.1 % control | 2. Nuclear Area (% Control) [2]: 106.8 % Control | 3. Nuclear DNA Intensity (% control) [2]: 104.7 % control
